{"source": "PubChem BioAssay AID212", "about": "(DTP/NCI, 2004)", "system": "BDF1 mice, colon carcinoma 38 sc, T/C %", "test": "NCI In Vivo Anticancer Drug Screen. Data for tumor model Colon Carcinoma 38 (subcutaneous) in B6D2F1 (BDF1) mice", "conditions": "T/C endpoint: median tumor weight (est.), higher T/C = larger tumour; for T/C: evaluated on day 20", "procedure,_shortened": "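Compound antitumor activity was assessed in mice carrying transplantable tumors. Survival or tumor size was recorded, and each value is the treated-group measurement divided by that of the vehicle-treated control group.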", "key": {"[1]": {"conditions": "dose: 200.0 mg/kg/injection, schedule: Q07DX002 (ip), vehicle: saline with Tween-80"}, "[2]": {"conditions": "dose: 400.0 mg/kg/injection, schedule: Q07DX002 (ip), vehicle: saline with Tween-80"}, "[3]": {"conditions": "dose: 800.0 mg/kg/injection, schedule: Q07DX002 (ip), vehicle: saline with Tween-80"}, "[4]": {"conditions": "dose: 100.0 mg/kg/injection, schedule: Q07DX002 (ip), vehicle: saline with Tween-80"}}, "note": "The list does not hold the whole screen: it is rich in T/C values a quarter to a half above the control, in often repeated tests (any T/C) and in doses without a T/C. Further doses and runs are listed elsewhere. T/C gives the treated animals as a percentage of the vehicle group. Schedules are NCI's codes, taken here to give the interval after Q, in days (D) or hours (H), and the number of doses after X. Some doses were run more than once; the values are given in rising order. Some T/C values carry the count of animals alive at the toxicity check (mostly the fifth day); where none is given, no animal had died by that day. Some doses have a count of surviving animals in place of a T/C: the source holds a T/C of zero for them, seemingly a mark for toxic or unscored doses. Survivors were counted at the toxicity check, usually on the fifth day, unless a day is given; later deaths do not show.", "data": [{"smiles": "CC12C(=O)C=CCC1=CCC1C2CCC2(O)C(=O)OC3(C)C4CC5(C)C(COC16OC23C5C6=O)C(=O)O4", "note": "(stereo unspecified)", "values": [{"measurement": "T/C", "setting": "dose: 200.0 mg/kg/injection, schedule: Q07DX002 (ip), vehicle: Klucel (hydroxypropylcellulose) (HPC)", "value": "128 % of control"}, {"measurement": "survivor count", "setting": "dose: 800.0 mg/kg/injection, schedule: Q07DX002 (ip), vehicle: Klucel (hydroxypropylcellulose) (HPC)", "value": "2 of 10 on day 20"}]}, {"smiles": "CC(=O)CC(c1ccccc1)c1c(O)c2ccccc2oc1=O", "note": "(stereo unspecified)", "values": [{"measurement": "T/C", "setting": "dose: 0.22 mg/kg/injection, schedule: Q07DX002 (ip), vehicle: saline with Tween-80", "value": "125 % of control"}, {"measurement": "T/C", "setting": "dose: 1.8 mg/kg/injection, schedule: Q07DX002 (ip), vehicle: saline with Tween-80", "value": "136 % of control"}, {"measurement": "T/C", "setting": "dose: 3.6 mg/kg/injection, schedule: Q07DX002 (ip), vehicle: saline with Tween-80", "value": "130 % of control"}]}, {"smiles": "CC[n+]1c(-c2ccccc2)c2cc(N)ccc2c2ccc(N)cc21", "values": [{"measurement": "T/C", "setting": "dose: 2.5 mg/kg/injection, schedule: Q07DX002 (ip), vehicle: saline", "value": "125 % of control"}, {"measurement": "T/C", "setting": "dose: 5.0 mg/kg/injection, schedule: Q07DX002 (ip), vehicle: saline", "value": "128 and 139 % of control"}, {"measurement": "T/C", "setting": "dose: 10.0 mg/kg/injection, schedule: Q07DX002 (ip), vehicle: saline", "value": "132 [9 of 10 alive on day 20] and 136 % of control"}, {"measurement": "survivor count", "setting": "dose: 40.0 mg/kg/injection, schedule: Q07DX002 (ip), vehicle: saline", "value": "4 of 10 on day 20 and 6 of 10 on day 20"}, {"measurement": "survivor count", "setting": "dose: 80.0 mg/kg/injection, schedule: Q07DX002 (ip), vehicle: saline", "value": "0 of 10 on day 20"}]}, {"smiles": "OCCN1CCN(CCCN2c3ccccc3Sc3ccc(C(F)(F)F)cc32)CC1", "values": [{"measurement": "survivor count", "setting": "dose: 100.0 mg/kg/injection, schedule: Q07DX002 (ip), vehicle: saline", "value": "6 of 10 on day 20"}]}, {"smiles": "C/C(=N\\NC(N)=O)c1cccc(/C(C)=N/NC(N)=O)n1", "values": [{"measurement": "survivor count", "setting": "[1]", "value": "6 of 10 on day 20"}, {"measurement": "survivor count", "setting": "[2]", "value": "4 of 10 on day 20"}]}, {"smiles": "C=C(C)C1C2CC3(C)C4(CO4)C4OC4C3(O)C1C(=O)O2", "note": "(stereo unspecified)", "values": [{"measurement": "T/C", "setting": "dose: 3.0 mg/kg/injection, schedule: Q07DX002 (ip), vehicle: Klucel (hydroxypropylcellulose) (HPC)", "value": "127 % of control [7 of 10 alive on day 20]"}, {"measurement": "survivor count", "setting": "dose: 6.0 mg/kg/injection, schedule: Q07DX002 (ip), vehicle: Klucel (hydroxypropylcellulose) (HPC)", "value": "0 of 10 on day 20"}]}, {"smiles": "COC(=O)Nc1ccc(Cc2ccc(NC(=O)OC)cc2)cc1", "values": [{"measurement": "T/C", "setting": "dose: 6.25 mg/kg/injection, schedule: Q07DX002 (ip), vehicle: saline with Tween-80", "value": "125 % of control"}, {"measurement": "T/C", "setting": "dose: 25.0 mg/kg/injection, schedule: Q07DX002 (ip), vehicle: saline with Tween-80", "value": "126 % of control"}, {"measurement": "T/C", "setting": "[1]", "value": "69, 80, 95, 111 % of control"}, {"measurement": "survivor count", "setting": "[3]", "value": "3 of 10 on day 20"}, {"measurement": "survivor count", "setting": "dose: 1600.0 mg/kg/injection, schedule: Q07DX002 (ip), vehicle: saline with Tween-80", "value": "0 of 10 on day 20"}]}, {"smiles": "C=CC(C)(C)n1cc(C2=C(O)C(=O)C(c3cn(C(C)(C)C=C)c4ccccc34)=C(O)C2=O)c2ccccc21", "values": [{"measurement": "T/C", "setting": "dose: 5.0 mg/kg/injection, schedule: Q07DX002 (ip), vehicle: DMSO", "value": "140 % of control"}, {"measurement": "T/C", "setting": "dose: 10.0 mg/kg/injection, schedule: Q07DX002 (ip), vehicle: DMSO", "value": "144 % of control"}, {"measurement": "survivor count", "setting": "dose: 160.0 mg/kg/injection, schedule: Q07DX002 (ip), vehicle: DMSO", "value": "0 of 10 on day 20"}]}, {"smiles": "CCOC(=O)C(C)(C)Oc1ccc(Cl)cc1", "values": [{"measurement": "T/C", "setting": "[4]", "value": "127 % of control"}, {"measurement": "survivor count", "setting": "[4]", "value": "5 of 10 on day 20"}, {"measurement": "survivor count", "setting": "[1]", "value": "5 of 10 on day 20"}, {"measurement": "survivor count", "setting": "[2]", "value": "1 of 10 on day 20"}, {"measurement": "survivor count", "setting": "[3]", "value": "1 of 10 on day 20"}]}, {"smiles": "CC(O)CCC(=O)c1ccoc1", "note": "(stereo unspecified)", "values": [{"measurement": "T/C", "setting": "dose: 1.25 mg/kg/injection, schedule: Q07DX002 (ip), vehicle: saline", "value": "145 % of control [9 of 10 alive on day 20]"}, {"measurement": "survivor count", "setting": "dose: 10.0 mg/kg/injection, schedule: Q03HX006 (ip), vehicle: saline", "value": "1 of 10 on day 20"}, {"measurement": "survivor count", "setting": "dose: 20.0 mg/kg/injection, schedule: Q03HX006 (ip), vehicle: saline", "value": "0 of 10 on day 20"}]}]}
